Our source for the binding values is US20020143164A1, “Ras activator nucleic acid molecules, polypeptides and methods of use” (priority 1999, published 2002).

These are yes or no findings as the source states them, for the method shown. In cells and extracts the contact can be indirect. Some results given as binding are weak or reduced against the parent protein; the word gives no strength. Tags and fused reporters may be left off the sequences shown.

The test deals with T1, Flag-tagged full-length GRF4 (human) (UniProt Q9Y4G8).
T1 sequence: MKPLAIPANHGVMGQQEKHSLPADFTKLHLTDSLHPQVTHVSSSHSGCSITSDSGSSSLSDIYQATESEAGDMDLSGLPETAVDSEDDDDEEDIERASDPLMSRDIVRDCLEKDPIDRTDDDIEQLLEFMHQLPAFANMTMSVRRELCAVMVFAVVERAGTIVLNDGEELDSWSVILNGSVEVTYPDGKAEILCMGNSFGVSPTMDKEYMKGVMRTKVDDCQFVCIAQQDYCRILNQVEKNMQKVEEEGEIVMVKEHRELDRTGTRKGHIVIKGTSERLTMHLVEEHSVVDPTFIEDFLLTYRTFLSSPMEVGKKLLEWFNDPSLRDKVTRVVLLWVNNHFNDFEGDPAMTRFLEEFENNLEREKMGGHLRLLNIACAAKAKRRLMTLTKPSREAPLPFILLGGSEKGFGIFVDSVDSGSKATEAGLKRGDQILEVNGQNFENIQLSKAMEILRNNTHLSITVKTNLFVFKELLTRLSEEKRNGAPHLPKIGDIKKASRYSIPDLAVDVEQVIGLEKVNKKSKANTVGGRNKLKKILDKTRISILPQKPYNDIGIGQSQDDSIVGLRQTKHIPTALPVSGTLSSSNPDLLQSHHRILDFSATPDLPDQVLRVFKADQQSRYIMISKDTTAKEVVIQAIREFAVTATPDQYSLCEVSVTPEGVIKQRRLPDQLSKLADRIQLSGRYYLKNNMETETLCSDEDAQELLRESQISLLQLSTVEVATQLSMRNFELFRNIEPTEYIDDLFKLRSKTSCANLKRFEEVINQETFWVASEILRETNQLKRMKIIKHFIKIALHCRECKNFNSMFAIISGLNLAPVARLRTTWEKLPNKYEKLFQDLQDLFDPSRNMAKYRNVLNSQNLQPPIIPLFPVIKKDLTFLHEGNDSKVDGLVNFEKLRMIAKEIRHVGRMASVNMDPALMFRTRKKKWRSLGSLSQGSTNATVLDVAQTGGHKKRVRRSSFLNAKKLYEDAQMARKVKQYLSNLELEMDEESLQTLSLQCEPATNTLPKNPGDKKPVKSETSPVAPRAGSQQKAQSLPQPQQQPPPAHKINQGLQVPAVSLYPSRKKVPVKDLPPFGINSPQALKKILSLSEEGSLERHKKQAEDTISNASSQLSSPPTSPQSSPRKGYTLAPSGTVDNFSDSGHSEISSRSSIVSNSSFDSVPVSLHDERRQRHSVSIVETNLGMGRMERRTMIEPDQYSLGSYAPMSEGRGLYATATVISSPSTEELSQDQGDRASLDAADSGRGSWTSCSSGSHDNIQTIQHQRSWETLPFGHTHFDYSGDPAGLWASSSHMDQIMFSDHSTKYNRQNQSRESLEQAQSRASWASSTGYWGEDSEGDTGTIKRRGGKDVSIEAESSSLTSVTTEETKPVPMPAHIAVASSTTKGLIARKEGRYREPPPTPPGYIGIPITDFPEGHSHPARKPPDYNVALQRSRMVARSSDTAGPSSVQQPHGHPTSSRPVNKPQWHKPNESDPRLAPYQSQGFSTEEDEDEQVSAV
The test is described as follows: pull-down with biotinylated peptide on streptavidin agarose beads.

As to GFSTEEDEDEQVSAV (biotinylated (position not given)) [Biotinylated peptide of the last 15 amino acids of GRF4, containing the PDZ-binding motif SAV*], the binding entry is listed as “binds”.
